Values from PubChem BioAssay AID743121 (NCATS, 2013)
Shown is a random part of about 26,000 reagents tested. 167 of all reagents (0.63%) count as active. 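Calls are per gene from RSA p-values that are not deposited; an individual active-marked siRNA can sensitise only weakly.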 Not all columns of the deposit are shown.

- Test: 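Genes whose silencing strengthens cell killing by camptothecin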 (primary screen)
- Cells: MDA-MB-231 cells, a human breast cancer line
- Reagents: single siRNA against human genes, 20 nM siRNA (0.8 pmol per well)
- Timing: 120 h (drug added 48 h after transfection, read 72 h later)
- Conditions: camptothecin 20 nM (about EC30) for 72 h; vehicle 0.1% DMSO in parallel plates
- Detection: 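Cell viability by ATP luminescence (CellTiter-Glo) as % of non-targeting siRNA wells, and the log2 ratio of viability without drug over viability with camptothecin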
- Direction: log2 vehicle/camptothecin viability: higher = stronger sensitisation to camptothecin
- Rule for the call: 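Each gene scored by redundant siRNA activity (RSA) over its individual siRNA ratios; a gene is called active at p < 0.001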

Depletion of NRXN3 [SID164403357] gave: log2 vehicle/camptothecin viability -0.24; inactive. Knock-down of NRXN3 [SID164403362] gave: log2 vehicle/camptothecin viability -0.0822; inactive. Against NRXN3 [SID164403363], the values are log2 vehicle/camptothecin viability 0.207; inactive. NTMT2 [SID164575367] showed log2 vehicle/camptothecin viability -0.212; inactive. NTMT2 [SID164575369] showed log2 vehicle/camptothecin viability -0.282; inactive. Against NTMT2 [SID164575371], the values are log2 vehicle/camptothecin viability -0.296; inactive.

Knock-down of MRPS28 [SID164464552] gave: log2 vehicle/camptothecin viability -0.0814; inactive. Against MRPS28 [SID164464554] the deposit lists log2 vehicle/camptothecin viability -0.106; inactive. MRPS28 [SID164464556] scored log2 vehicle/camptothecin viability -0.194; inactive. Against ZRANB1 [SID164480350], the values are log2 vehicle/camptothecin viability -0.0031; inactive. ZRANB1 [SID164480351] showed log2 vehicle/camptothecin viability -0.154; inactive. Against ZRANB1 [SID164480352], the entry reads log2 vehicle/camptothecin viability 0.154; inactive.

Silencing of ZRANB1 [SID164480353] gave: log2 vehicle/camptothecin viability -0.141; inactive.

Reprinted from the listing, 3 entries:
NRXN3 [SID164403362] → log2 vehicle/camptothecin viability = -0.0822; Outcome = inactive
NRXN3 [SID164403363] → log2 vehicle/camptothecin viability = 0.207; Outcome = inactive
NTMT2 [SID164575367] → log2 vehicle/camptothecin viability = -0.212; Outcome = inactive

Further results follow:
With knock-down of TRPV1 [SID164393894], the record shows log2 vehicle/camptothecin viability -0.522; inactive. With knock-down of TRPV1 [SID164393895] the results were log2 vehicle/camptothecin viability -0.298; inactive. Depletion of TRPV1 [SID164393896] resulted in: log2 vehicle/camptothecin viability -0.175; inactive. After knock-down of ANP32A [SID164396317], the record shows log2 vehicle/camptothecin viability -0.221; inactive. With knock-down of ANP32A [SID164396319] the results were log2 vehicle/camptothecin viability -0.00178; inactive. Depletion of ANP32A [SID164396320] came out at: log2 vehicle/camptothecin viability -0.573; inactive.

With knock-down of ANP32A [SID164396322] the results were log2 vehicle/camptothecin viability -0.113; inactive. With knock-down of SCN5A [SID164387140], the record shows log2 vehicle/camptothecin viability 0.0029; inactive. Against SCN5A [SID164387144] the deposit lists log2 vehicle/camptothecin viability -0.316; inactive. Against SCN5A [SID164387146], the entry reads log2 vehicle/camptothecin viability -0.481; inactive. Knock-down of SCN5A [SID164387147] resulted in: log2 vehicle/camptothecin viability -0.531; inactive.
